# Laboratory results reported in patent publication US20220348567A1, “NOVEL OXADIAZOLE COMPOUNDS CONTAINING 5- MEMBERED HETEROAROMATIC RING FOR CONTROLLING OR PREVENTING PHYTOPATHOGENIC FUNGI” (PI INDUSTRIES LTD., priority 2019, published 2022).
# Some of these results come from one statement about several compounds together. For some assays here: At least one structure is not confirmed: it was looked up by name or label, or the drawing left a doubt.
# Test system: Phakopsora pachyrhizi
# Experiment: Phakopsora pachyrhizi test in soybean, greenhouse, preventive activity
# Format: in vivo, Phakopsora pachyrhizi on soybean plants
# Settings: 500 ppm; spray one day before inoculation; soybean plants
# Description: Compounds were dissolved in 2% dimethyl sulfoxide/acetone and then mixed with water containing emulsifier to the calibrated spray volume of 50 mL. Each spray solution was poured into a spray bottle for further application. To test the preventive activity of the compound, healthy young Soybean plants, raised in the greenhouse, were sprayed with the active compound preparation at the stated application rate inside the spray cabinets using hollow cone nozzles. One day aftertreatment, the plants were inoculated with a conidial suspension containing 2×10^5Phakopsora […]. The inoculated plants were then kept in a greenhouse chamber at 22-24° C. temperature and 80-90% relative humidity for disease expression. A visual assessment of the compound's performance was carried out by rating the disease severity (0-100% scale) on treated plants 3, 7, 10 and 15 days after application. Efficacy (% control) of the compound was calculated by comparing the disease rating in the treatment with the one of the untreated control. The sprayed plants were also assessed for plant damage by recording symptoms like necrosis, chlorosis and stunting.
row,SMILES,"control (efficacy, disease severity rating versus untreated control) [%]"
1,"O=C(N=S1(=O)CCOCC1)c1cnn(-c2ccc(-c3noc(C(F)(F)F)n3)cc2)c1 [Compound 18, N-(4-oxido-1,4-λ^6-oxathian-4-ylidene)-1-(4-(5-(trifluoromethyl)-1,2,4-oxadiazol-3-yl)phenyl)-1H-pyrazole-4-carboxamide]",≤ 70

# Test system: Alternaria solani
# Experiment: Alternaria solani (early blight of tomato/potato) in vitro radial growth test on potato dextrose agar
# Format: cell-based
# Settings: 300 ppm; 7 days, 25° C., 60% relative humidity
row,SMILES,control (radial growth compared to untreated control) [%]
1,"COCCS(=O)(=NC(=O)c1ccn(-c2ccc(-c3noc(C(F)(F)F)n3)cc2)c1)c1ccccn1 (centres unmarked) [Compound 25, N-((2-methoxyethyl)(oxo)(pyridin-2-yl)-λ^6-sulfanylidene)-1-(4-(5-(trifluoromethyl)-1,2,4-oxadiazol-3-yl)phenyl)-1H-pyrrole-3-carboxamide]",≥ 70
2,"CS(=O)(=NC(=O)c1cnn(-c2ccc(-c3noc(C(F)(F)F)n3)cc2)c1)c1ccc(Cl)cc1 (centres unmarked) [Compound 38, N-((4-chlorophenyl)(methyl)(oxo)-λ^6-sulfaneylidene)-1-(4-(5-(trifluoromethyl)-1,2,4-oxadiazol-3-yl)phenyl)-1H-pyrazole-4-carboxamide]",≥ 70
3,"CCS(=O)(CC)=NC(=O)c1cnn(-c2ccc(-c3noc(C(F)(F)F)n3)cc2)c1 [Compound 36, N-(diethyl(oxo)-λ^6-sulfaneylidene)-1-(4-(5-(trifluoromethyl)-1,2,4-oxadiazol-3-yl)phenyl)-1H-pyrazole-4-carboxamide]",≥ 70
4,"CS(=O)(=NC(=O)c1ccn(-c2ccc(-c3noc(C(F)(F)F)n3)cc2)c1)c1ccncc1F (centres unmarked) [Compound 28, N-((3-fluoropyridin-4-yl)(methyl)(oxo)-λ^6-sulfanylidene)-1-(4-(5-(trifluoromethyl)-1,2,4-oxadiazol-3-yl)phenyl)-1H-pyrrole-3-carboxamide]",≥ 70
5,"CS(C)(=O)=NC(=O)c1cnn(-c2ccc(-c3noc(C(F)(F)F)n3)cc2)c1 [Compound 37, N-(dimethyl(oxo)-λ^6-sulfaneylidene)-1-(4-(5-(trifluoromethyl)-1,2,4-oxadiazol-3-yl)phenyl)-1H-pyrazole-4-carboxamide]",≥ 70
6,"CCOC(=O)Cc1cn(-c2ccc(-c3noc(C(F)(F)F)n3)cc2)cn1 [Compound 1, Ethyl 2-(1-(4-(5-(trifluoromethyl)-1,2,4-oxadiazol-3-yl)phenyl)-1H-imidazol-4-yl)acetate]",≥ 70
7,"Cc1cccc(S(C)(=O)=NC(=O)c2ccn(-c3ccc(-c4noc(C(F)(F)F)n4)cc3)c2)c1 (centres unmarked) [Compound 24, N-(methyl(oxo)(m-tolyl)-λ^6-sulfanylidene)-1-(4-(5-(trifluoromethyl)-1,2,4-oxadiazol-3-yl)phenyl)-1H-pyrrole-3-carboxamide]",≥ 70
